From patent US20140335107A1
Numbering of substitutions follows the chain as printed. These are yes or no findings as the source states them, for the method shown. Some entries that bind do so weakly or less than the wild type.

Chains of the proteins cited; added tags and fusions are not shown. Lines headed by an entry give the natural chain unless they say otherwise; changes in a name come on top.
UniProt P40259: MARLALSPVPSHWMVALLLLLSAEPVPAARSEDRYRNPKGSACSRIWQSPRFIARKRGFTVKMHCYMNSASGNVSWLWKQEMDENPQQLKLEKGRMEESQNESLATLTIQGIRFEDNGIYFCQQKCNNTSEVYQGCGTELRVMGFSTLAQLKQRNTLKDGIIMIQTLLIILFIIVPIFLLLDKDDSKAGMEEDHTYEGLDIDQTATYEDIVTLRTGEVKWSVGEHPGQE

B1: huMA79b graft variant with HVR-H1 of SEQ ID NO: 67 (H1-1), Fab (Fab, name in Kabat numbering, V domains shown)
VH: EVQLVESGGGLVQPGGSLRLSCAASGYPFNRYWINWVRQAPGKGLEWVGEILPGGGDTNYNEIFKGRFTISADTSKNTAYLQMNSLRAEDTAVYYCTRRVPVYFDYWGQGTLVTVSS
VL: DIQMTQSPSSLSASVGDRVTITCKASQSVDYDGDSFLNWYQQKPGKAPKLLIYAASNLESGVPSRFSGSGSGTDFTLTISSLQPEDFATYYCQQSNEDPLTFGQGTKVEIKR
B2: huMA79b graft variant with HVR-H1 of SEQ ID NO: 62 (Fab, name in Kabat numbering, V domains shown)
VH: B1 VH with N30G, I34V
VL: B1 VL
B3: huMA79b graft variant with HVR-H1 of SEQ ID NO: 63 (Fab, name in Kabat numbering, V domains shown)
VH: B1 VH with P28T, N30K, R31K, N35E
VL: B1 VL
B4: huMA79b graft variant with HVR-H1 of SEQ ID NO: 64 (Fab, name in Kabat numbering, V domains shown)
VH: B1 VH with N30T, R31S, N35Q
VL: B1 VL
B5: huMA79b graft variant with HVR-H1 of SEQ ID NO: 65 (Fab, name in Kabat numbering, V domains shown)
VH: B1 VH with N30R, N35E
VL: B1 VL
B6: huMA79b graft variant with HVR-H1 of SEQ ID NO: 66 (Fab, name in Kabat numbering, V domains shown)
VH: B1 VH with F29V, N30G, N35S
VL: B1 VL
B7: huMA79b graft variant with HVR-H1 of SEQ ID NO: 68 (Fab, name in Kabat numbering, V domains shown)
VH: B1 VH with P28G, N30T, R31S, N35S
VL: B1 VL
B8: huMA79b graft variant with HVR-H1 of SEQ ID NO: 69 (Fab, name in Kabat numbering, V domains shown)
VH: B1 VH with P28T, N30T, R31S, I34L, N35S
VL: B1 VL
B9: huMA79b graft variant with HVR-H1 of SEQ ID NO: 70 (Fab, name in Kabat numbering, V domains shown)
VH: B1 VH with P28T, N30T, R31S, N35E
VL: B1 VL
B10: huMA79b graft variant with HVR-H1 of SEQ ID NO: 71 (Fab, name in Kabat numbering, V domains shown)
VH: B1 VH with P28T, N30S, R31G
VL: B1 VL
B11: huMA79b graft variant with HVR-H1 of SEQ ID NO: 72 (Fab, name in Kabat numbering, V domains shown)
VH: B1 VH with P28T, N30R
VL: B1 VL
B12: huMA79b graft variant with HVR-H1 of SEQ ID NO: 73 (Fab, name in Kabat numbering, V domains shown)
VH: B1 VH with P28S, N30R, R31S
VL: B1 VL
B13: huMA79b graft variant with HVR-H1 of SEQ ID NO: 74 (Fab, name in Kabat numbering, V domains shown)
VH: B1 VH with P28S, N30R
VL: B1 VL
B14: huMA79b graft variant with HVR-H1 of SEQ ID NO: 75 (Fab, name in Kabat numbering, V domains shown)
VH: B1 VH with P28S, N30R, N35E
VL: B1 VL
B15: huMA79b graft variant with HVR-H1 of SEQ ID NO: 76 (Fab, name in Kabat numbering, V domains shown)
VH: B1 VH with P28S, N30P, R31S, I34L, N35Q
VL: B1 VL
B16: huMA79b graft variant with HVR-H1 of SEQ ID NO: 77 (Fab, name in Kabat numbering, V domains shown)
VH: B1 VH with N30T, N35E
VL: B1 VL
B17: huMA79b graft variant with HVR-H1 of SEQ ID NO: 78 (Fab, name in Kabat numbering, V domains shown)
VH: B1 VH with N30S, R31G, N35E
VL: B1 VL
B18: huMA79b graft variant with HVR-H1 of SEQ ID NO: 79 (Fab, name in Kabat numbering, V domains shown)
VH: B1 VH with N30R, R31S, N35S
VL: B1 VL
B19: huMA79b graft variant with HVR-H1 of SEQ ID NO: 80 (Fab, name in Kabat numbering, V domains shown)
VH: B1 VH with N30R, R31S
VL: B1 VL
B20: huMA79b graft variant with HVR-H1 of SEQ ID NO: 81 (Fab, name in Kabat numbering, V domains shown)
VH: B1 VH with N30R, R31G, N35E
VL: B1 VL
B21: huMA79b graft variant with HVR-H1 of SEQ ID NO: 82 (Fab, name in Kabat numbering, V domains shown)
VH: B1 VH with N35E
VL: B1 VL
B22: huMA79b graft variant with HVR-H1 of SEQ ID NO: 83 (Fab, name in Kabat numbering, V domains shown)
VH: B1 VH with R31G
VL: B1 VL
B23: huMA79b graft variant with HVR-H1 of SEQ ID NO: 84 (Fab, name in Kabat numbering, V domains shown)
VH: B1 VH with P28N, F29V, N30S, R31S, I34L, N35S
VL: B1 VL
B24: huMA79b graft variant with HVR-H1 of SEQ ID NO: 85 (Fab, name in Kabat numbering, V domains shown)
VH: B1 VH with Y27F, N30T, R31S, N35S
VL: B1 VL
B25: huMA79b graft variant with HVR-H1 of SEQ ID NO: 86 (Fab, name in Kabat numbering, V domains shown)
VH: B1 VH with Y27F
VL: B1 VL
B26: huMA79b graft variant with HVR-H3 of SEQ ID NO: 87 (also printed for SEQ ID NO: 103) (Fab, name in Kabat numbering, V domains shown)
VH: B1 VH with P28T, N30S, R31S, N35E, V102I, F104L
VL: B1 VL
B27: huMA79b graft variant with HVR-H3 of SEQ ID NO: 89 (Fab, name in Kabat numbering, V domains shown)
VH: B1 VH with P28T, N30S, R31S, N35E, Y103K, F104L
VL: B1 VL
B28: huMA79b graft variant with HVR-H3 of SEQ ID NO: 90 (also printed for SEQ ID NO: 93) (Fab, name in Kabat numbering, V domains shown)
VH: B1 VH with P28T, N30S, R31S, N35E, F104L
VL: B1 VL
B29: huMA79b graft variant with HVR-H3 of SEQ ID NO: 91 (also printed for SEQ ID NO: 97 and 104) (Fab, name in Kabat numbering, V domains shown)
VH: B1 VH with P28T, N30S, R31S, N35E, V102I
VL: B1 VL
B30: huMA79b graft variant with HVR-H3 of SEQ ID NO: 92 (Fab, name in Kabat numbering, V domains shown)
VH: B1 VH with P28T, N30S, R31S, N35E, V102F, Y103C, F104L
VL: B1 VL
B31: huMA79b graft variant with HVR-H3 of SEQ ID NO: 95 (Fab, name in Kabat numbering, V domains shown)
VH: B1 VH with P28T, N30S, R31S, N35E, V102I, Y103K, F104L
VL: B1 VL
B32: huMA79b graft variant with HVR-H3 of SEQ ID NO: 96 (Fab, name in Kabat numbering, V domains shown)
VH: B1 VH with P28T, N30S, R31S, N35E, V102I, Y103R
VL: B1 VL
B33: huMA79b graft variant with HVR-H3 of SEQ ID NO: 98 (Fab, name in Kabat numbering, V domains shown)
VH: B1 VH with P28T, N30S, R31S, N35E, D105S
VL: B1 VL
B34: huMA79b graft variant with HVR-H3 of SEQ ID NO: 99 (Fab, name in Kabat numbering, V domains shown)
VH: B1 VH with P28T, N30S, R31S, N35E, Y103V, F104L
VL: B1 VL
B35: huMA79b graft variant with HVR-H3 of SEQ ID NO: 100 (Fab, name in Kabat numbering, V domains shown)
VH: B1 VH with P28T, N30S, R31S, N35E, Y103R, F104L
VL: B1 VL
B36: huMA79b graft variant with HVR-H3 of SEQ ID NO: 101 (Fab, name in Kabat numbering, V domains shown)
VH: B1 VH with P28T, N30S, R31S, N35E, Y103R
VL: B1 VL
B37: huMA79b graft variant with HVR-H3 of SEQ ID NO: 102 (Fab, name in Kabat numbering, V domains shown)
VH: B1 VH with P28T, N30S, R31S, N35E, Y103F, F104L
VL: B1 VL
B38: huMA79b graft variant with HVR-H3 of SEQ ID NO: 105 (Fab, name in Kabat numbering, V domains shown)
VH: B1 VH with P28T, N30S, R31S, N35E, V100R, Y103C, F104L
VL: B1 VL
B39: huMA79b graft variant with HVR-H3 of SEQ ID NO: 106 (Fab, name in Kabat numbering, V domains shown)
VH: B1 VH with P28T, N30S, R31S, N35E, V100I
VL: B1 VL

Columns and labels:
[1] = biological target: extracellular domain of human CD79b (huCD79becd) (human) (UniProt P40259); assay: phage selection, Fab on phage
human CD79b (human) = human CD79b (human) (UniProt P40259); assay: FACS on DoHH-2 cells, Fab (data not shown)

Row | Binder | binding [1] | binding (human CD79b (human))
1 | B1 | binds | binds
2 | B2 | binds | 
3 | B3 | binds | 
4 | B4 | binds | 
5 | B5 | binds | 
6 | B6 | binds | 
7 | B7 | binds | 
8 | B8 | binds | 
9 | B9 | binds | 
10 | B10 | binds | 
11 | B11 | binds | 
12 | B12 | binds | 
13 | B13 | binds | 
14 | B14 | binds | 
15 | B15 | binds | 
16 | B16 | binds | 
17 | B17 | binds | 
18 | B18 | binds | 
19 | B19 | binds | 
20 | B20 | binds | 

Row | Binder | binding [1] | binding (human CD79b (human))
21 | B21 | binds | 
22 | B22 | binds | 
23 | B23 | binds | 
24 | B24 | binds | 
25 | B25 | binds | 
26 | B26 | binds | 
27 | B27 | binds | 
28 | B28 | binds | 
29 | B29 | binds | 
30 | B30 | binds | 
31 | B31 | binds | 
32 | B32 | binds | 
33 | B33 | binds | 
34 | B34 | binds | 
35 | B35 | binds | 
36 | B36 | binds | 
37 | B37 | binds | 
38 | B38 | binds | 
39 | B39 | binds | 
